The test system of this test is P388 leukemia ip, CD2F1 mice, survival T/C. The test can be described thus: NCI In Vivo Anticancer Drug Screen. Data for tumor model P388 Leukemia (intraperitoneal) in CD2F1 (CDF1) mice. The note with it: T/C endpoint: median survival time, higher T/C = longer survival.
Where [1] appears, read: dose: 100.0 mg/kg/injection, schedule: Q01DX001 (ip), vehicle: saline.
Where [2] appears, read: dose: 200.0 mg/kg/injection, schedule: Q01DX001 (ip), vehicle: saline.
The mark [3] stands for this setting: dose: 400.0 mg/kg/injection, schedule: Q01DX001 (ip), vehicle: saline.

The results in this text go back to PubChem BioAssay AID330 (DTP/NCI, 2004).

Each structure is given as a SMILES string. The list does not hold the whole screen: its compounds were picked by chemical class. Other doses and runs of a compound may be missing. T/C gives the treated animals as a percentage of the vehicle group. Some doses have a count of surviving animals in place of a T/C: the source files T/C as zero there, which appears to mark a toxic dose or a test without result, not a measured value. Survivors were counted at the toxicity check, usually on the fifth day, unless a day is given; later deaths do not show. Schedules are NCI's codes, read here as Q, the interval in days (D) or hours (H), X, the number of doses. Where survival is the endpoint, this PubChem deposit counts one and a half times the control or more as active, and values a quarter to a half above the control carry no call in these data; other NCI protocols may use other cut-offs. Some entries show no survivor count and are marked so; the dose need not have been tolerated. Some entries were tested several times; their values stand side by side, smallest first. Some T/C values carry the count of animals alive at the toxicity check (mostly the fifth day); where neither a count nor a note follows, no animal had died by that day.

For `CC1(C)CN1P(=O)(Nc1ccccn1)N1CC1(C)C` (centres undefined), the T/C was 100 % of control (dose: 6.5 mg/kg/injection, schedule: Q01DX009 (ip), vehicle: saline with Tween-80); 103 % of control (dose: 13.0 mg/kg/injection, schedule: Q01DX009 (ip), vehicle: saline with Tween-80); 103 % of control (dose: 26.0 mg/kg/injection, schedule: Q01DX009 (ip), vehicle: saline with Tween-80); 118 % of control (dose: 44.0 mg/kg/injection, schedule: Q01DX009 (ip), vehicle: saline with Tween-80); 127 % of control (dose: 66.0 mg/kg/injection, schedule: Q01DX009 (ip), vehicle: saline with Tween-80); 145 % of control (dose: 88.0 mg/kg/injection, schedule: Q01DX009 (ip), vehicle: saline with Tween-80). For the same molecule, the T/C reads like this: (dose: 100.0 mg/kg/injection, schedule: Q01DX009 (ip), vehicle: saline with Tween-80) 145 % of control [5 of 6 alive]; (dose: 132.0 mg/kg/injection, schedule: Q01DX009 (ip), vehicle: saline with Tween-80) 153 % of control; (dose: 150.0 mg/kg/injection, schedule: Q01DX009 (ip), vehicle: saline with Tween-80) 145 % of control [5 of 6 alive]; (dose: 200.0 mg/kg/injection, schedule: Q01DX009 (ip), vehicle: saline with Tween-80) 205 % of control. Also, the survivor count (dose: 300.0 mg/kg/injection, schedule: Q01DX009 (ip), vehicle: saline with Tween-80) is recorded as 3 of 6.
`CCOP(=O)(O)CC`: the T/C reads like this: (dose: 100.0 mg/kg/injection, schedule: Q01DX001 (ip), vehicle: Klucel (hydroxypropylcellulose) (HPC)) 97 % of control [survivor count not shown]; (dose: 200.0 mg/kg/injection, schedule: Q01DX001 (ip), vehicle: Klucel (hydroxypropylcellulose) (HPC)) 91 % of control [survivor count not shown]; (dose: 400.0 mg/kg/injection, schedule: Q01DX001 (ip), vehicle: Klucel (hydroxypropylcellulose) (HPC)) 91 % of control [survivor count not shown].
For the molecule `COC(=O)C(Cc1ccccc1)NP(C)(=O)OC` (centres undefined), the T/C runs as follows: (dose: 25.0 mg/kg/injection, schedule: Q01DX005 (ip), vehicle: saline) 97 % of control; (dose: 50.0 mg/kg/injection, schedule: Q01DX005 (ip), vehicle: saline) 98 % of control; (dose: 100.0 mg/kg/injection, schedule: Q01DX005 (ip), vehicle: saline) 97 % of control.
With `CCOP1OCC(CC)CO1` (centres undefined), the T/C is, setting by setting: (dose: 100.0 mg/kg/injection, schedule: Q04DX002 (ip), vehicle: saline with Tween-80) 113 % of control; (dose: 200.0 mg/kg/injection, schedule: Q04DX002 (ip), vehicle: saline with Tween-80) 88 % of control; (dose: 400.0 mg/kg/injection, schedule: Q04DX002 (ip), vehicle: saline with Tween-80) 110 % of control.
Take `F[P-](F)(F)(F)(F)F.c1ccc([P+]2(c3ccccc3)CCc3ccccc3C2)cc1`: the T/C by setting is: (dose: 1.56 mg/kg/injection, schedule: Q04DX003 (ip), vehicle: saline) 96 % of control; (dose: 3.13 mg/kg/injection, schedule: Q04DX003 (ip), vehicle: saline) 97 % of control. For the same molecule, for the setting “dose: 6.25 mg/kg/injection, schedule: Q04DX003 (ip), vehicle: saline”, the survivor count was 0 of 6.
In the case of `O=C(O)Cc1c([N+](=O)[O-])cc([N+](=O)[O-])cc1[N+](=O)[O-]`, the T/C under setting [1] is 100 % of control and the T/C under setting [2] was 104 % of control [4 of 6 alive]. Further, under setting [3], the survivor count is reported as 3 of 6.
In the case of `Nc1ccc(N(CCCl)CCCl)cc1`, the T/C is, setting by setting: (dose: 0.05 mg/kg/injection, schedule: Q01DX009 (ip), vehicle: saline) 116 % of control; (dose: 0.07 mg/kg/injection, schedule: Q01DX009 (ip), vehicle: saline) 115 % of control; (dose: 0.11 mg/kg/injection, schedule: Q01DX009 (ip), vehicle: saline) 113 % of control; (dose: 0.16 mg/kg/injection, schedule: Q01DX009 (ip), vehicle: saline) 133 % of control; (dose: 1.5 micrograms/kg/injection, schedule: Q01DX009 (ip), vehicle: saline) 102 % of control; (dose: 3.1 micrograms/kg/injection, schedule: Q01DX009 (ip), vehicle: saline) 99 % of control. The T/C is 95 % of control (dose: 6.2 micrograms/kg/injection, schedule: Q01DX009 (ip), vehicle: saline); 99 % of control (dose: 12.5 micrograms/kg/injection, schedule: Q01DX009 (ip), vehicle: saline); 99 % of control (dose: 25.0 micrograms/kg/injection, schedule: Q01DX009 (ip), vehicle: saline); 91 % of control (dose: 50.0 micrograms/kg/injection, schedule: Q01DX009 (ip), vehicle: saline).
Take `CN(C)c1ccccc1.O=[N+]([O-])c1cc([N+](=O)[O-])c(O)c([N+](=O)[O-])c1`: the T/C was 100 % of control [survivor count not shown] (dose: 25.0 mg/kg/injection, schedule: Q04DX003 (ip), vehicle: saline with Tween-80); 107 % of control [survivor count not shown] (dose: 50.0 mg/kg/injection, schedule: Q04DX003 (ip), vehicle: saline with Tween-80); 100 % of control [survivor count not shown] (dose: 100.0 mg/kg/injection, schedule: Q04DX003 (ip), vehicle: saline with Tween-80).
Consider `O=[N+]([O-])c1cccc(S(=O)(=O)N/N=C/c2cc([N+](=O)[O-])cc([N+](=O)[O-])c2O)c1`, for which the T/C was 107 % of control (dose: 60.0 mg/kg/injection, schedule: Q01DX005 (ip), vehicle: saline with Tween-80) and 103 % of control (dose: 120.0 mg/kg/injection, schedule: Q01DX005 (ip), vehicle: saline with Tween-80). Moreover, the survivor count (dose: 240.0 mg/kg/injection, schedule: Q01DX005 (ip), vehicle: saline with Tween-80) was 1 of 6.
For `CCN(CC)CC[CH2][Sb]([CH3])([CH3])([Br])[Br].O=[N+]([O-])c1cc([N+](=O)[O-])c(O)c([N+](=O)[O-])c1`, the T/C runs as follows: (dose: 50.0 mg/kg/injection, schedule: Q01DX009 (ip), vehicle: saline) 96 % of control [survivor count not shown]; (dose: 100.0 mg/kg/injection, schedule: Q01DX009 (ip), vehicle: saline) 102 % of control [survivor count not shown]; (dose: 200.0 mg/kg/injection, schedule: Q01DX009 (ip), vehicle: saline) 93 % of control [survivor count not shown].
Regarding `CCOP(=O)(O)CC.[U]`, the T/C (dose: 50.0 mg/kg/injection, schedule: Q01DX009 (ip), vehicle: saline with Tween-80) was 87 [survivor count not shown] and 94 % of control [survivor count not shown].
With `C=C1C[C@@]2(C)[C@H](OC(=O)c3ccccc3)C[C@H]1[C@@]21CO1`, the T/C (dose: 2.0 mg/kg/injection, schedule: Q04DX002 (ip), vehicle: distilled water + Tween-80) is 99 % of control; the T/C (dose: 4.0 mg/kg/injection, schedule: Q04DX002 (ip), vehicle: distilled water + Tween-80) is 100 % of control; the T/C (dose: 8.0 mg/kg/injection, schedule: Q04DX002 (ip), vehicle: distilled water + Tween-80) was 100 % of control; the T/C (dose: 16.0 mg/kg/injection, schedule: Q04DX002 (ip), vehicle: distilled water + Tween-80) was 102 % of control; the T/C (dose: 32.0 mg/kg/injection, schedule: Q04DX002 (ip), vehicle: distilled water + Tween-80) was 100 % of control.
`[N-]=[N+]=Nc1ccc(F)c([N+](=O)[O-])c1`: the T/C by setting is: (dose: 12.5 mg/kg/injection, schedule: Q01DX009 (ip), vehicle: other) 100 % of control; (dose: 25.0 mg/kg/injection, schedule: Q01DX009 (ip), vehicle: other) 109 % of control; (dose: 50.0 mg/kg/injection, schedule: Q01DX009 (ip), vehicle: other) 109 % of control. Also, the survivor count is 3 of 6 (dose: 100.0 mg/kg/injection, schedule: Q01DX009 (ip), vehicle: other) and 3 of 6 (dose: 200.0 mg/kg/injection, schedule: Q01DX009 (ip), vehicle: other).
On to `[O-][n+]1nccnc1N1CC1`, for which the T/C is 99 % of control under setting [1], 98 % of control under setting [2] and 100 % of control under setting [3].
